Values from PubChem BioAssay AID1259289 (Sanger Institute, 2017).
In all, the deposit lists 794 reagents; shown is a random part of them. Over the whole deposit, 16 (2%) got an active call. 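Active marks cell loss from silencing alone; drug synergy shows only in the synergy scores, not the calls.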 No viability above 1 is reported: the scale is capped. Not given: the amount of reagent, the time to read-out.

- Assay: 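Kinase-wide silencing tested with three anchor drugs to reveal synergistic lethal pairs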 (primary screen)
- System: human LS513 colorectal cancer cells
- Reagent: siRNA pool against human genes
- Treatment: anchor drug BYL719 at 1 µM, cetuximab at 5 µg/ml or trametinib at 10 nM, or DMSO vehicle alone; exposure time not given
- Measured: 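Survival versus non-targeting pool for each arm averaged over replicates, robust z-score in the arm with DMSO only, and synergy scores for BYL719, cetuximab or trametinib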
- Scale: robust z-score, siRNA alone (DMSO): higher = more viable cells; strongly negative means essential; viability with DMSO vs control: higher = more viable cells; synergy score with BYL719: higher = stronger combined killing with BYL719; synergy score with cetuximab: higher = stronger combined killing with cetuximab; synergy score with trametinib: higher = stronger combined killing with trametinib
- Active means: 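Called essential when silencing alone under DMSO gives a robust z-score below -3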
- Calls: active = essential (knock-down alone); inactive = not essential

target | robust z-score, siRNA alone (DMSO) | viability with DMSO vs control (fraction of control) | synergy score with BYL719 | synergy score with cetuximab | synergy score with trametinib | activity call
EPHA8 (GeneID 2046) | 0.561 | 1 | -0.0217 | -0.0286 | -0.106 | inactive
HCK (GeneID 3055) | 0.561 | 1 | 0.0405 | 0.0485 | 0.0326 | inactive
CALM3 (GeneID 808) | 0.561 | 1 | -0.0487 | -0.0934 | 0.0147 | inactive
PSKH2 (GeneID 85481) | 0.561 | 1 | 0.0516 | 0.0164 | 0.0746 | inactive
ATR (GeneID 545) | -1.27 | 0.741 | -0.00894 | -0.162 | -0.0784 | inactive
HSPB8 (GeneID 26353) | -0.211 | 0.89 | -0.167 | -0.169 | 0.0444 | inactive
DGKB (GeneID 1607) | -2.21 | 0.607 | -0.0792 | -0.109 | 0.0178 | inactive
TTK (GeneID 7272) | -0.0345 | 0.915 | 0.0582 | 0.0846 | -0.0284 | inactive
CAMK2B (GeneID 816) | 0.561 | 1 | 0.122 | -0.0623 | 0.0543 | inactive
PIP4K2C (GeneID 79837) | 0.236 | 0.954 | -0.109 | -0.124 | 0.0157 | inactive
MPP2 (GeneID 4355) | 0.142 | 0.941 | 0.0827 | 0.0241 | 0.0391 | inactive
BMPR1B (GeneID 658) | 0.561 | 1 | 0.184 | -0.0339 | -0.031 | inactive
CDKN1A (GeneID 1026) | 0.561 | 1 | -0.134 | -0.0968 | -0.098 | inactive
ACSL6 (GeneID 23305) | 0.561 | 1 | -0.0578 | -0.0968 | -0.00412 | inactive
AKT1 (GeneID 207) | 0.561 | 1 | 0.064 | 0.0409 | 0.0539 | inactive
PKN1 (GeneID 5585) | 0.561 | 1 | -0.134 | -0.0968 | 0.0438 | inactive
FASTK (GeneID 10922) | 0.561 | 1 | 0.147 | -0.0968 | -0.142 | inactive
TAOK3 (GeneID 51347) | 0.561 | 1 | 0.0265 | 0.0185 | -0.057 | inactive
UCK2 (GeneID 7371) | 0.561 | 1 | 0.361 | -0.0968 | -0.0201 | inactive
PRKY (GeneID 5616) | -1.11 | 0.763 | 0.0457 | 0.0329 | -0.00963 | inactive
PHKG1 (GeneID 5260) | 0.561 | 1 | -0.134 | -0.0968 | 0.0688 | inactive
ALPK1 (GeneID 80216) | -1.86 | 0.656 | -0.101 | -0.0954 | 0.0391 | inactive
DYRK1B (GeneID 9149) | 0.183 | 0.946 | 0.0239 | 0.168 | 0.057 | inactive
CLK4 (GeneID 57396) | -0.0167 | 0.918 | 0.0493 | -0.0683 | 0.00563 | inactive
TJP2 (GeneID 9414) | 0.561 | 1 | -0.0298 | 0.0994 | 0.0417 | inactive
APC (GeneID 324) | -0.368 | 0.868 | 0.0571 | 0.0494 | 0.0398 | inactive
CAMK2A (GeneID 815) | 0.532 | 0.996 | -0.0745 | -0.0567 | 0.0357 | inactive
PLK1 (GeneID 5347) | -3.65 | 0.402 | 0.0338 | 0.0385 | 0.00597 | active
CHD4 (GeneID 1108) | -3.76 | 0.387 | 0.0219 | 0.167 | 0.0156 | active
NR4A2 (GeneID 4929) | -0.69 | 0.822 | 0.202 | 0.229 | 0.0534 | inactive
PRPS1 (GeneID 5631) | 0.561 | 1 | 0.126 | -0.0386 | 0.0645 | inactive
AAK1 (GeneID 22848) | -0.344 | 0.872 | 0.0477 | 0.113 | -0.0282 | inactive
MAGI1 (GeneID 9223) | -1.74 | 0.673 | -0.123 | -0.103 | 0.0379 | inactive
RFK (GeneID 55312) | 0.561 | 1 | -0.134 | -0.0968 | 0.0169 | inactive
MAPK1 (GeneID 5594) | -1.29 | 0.738 | -0.121 | 0.0061 | 0.0138 | inactive
EIF2AK3 (GeneID 9451) | 0.355 | 0.971 | -0.0633 | -0.123 | -0.0426 | inactive
AK3 (GeneID 50808) | 0.561 | 1 | -0.0737 | -0.0968 | 0.0047 | inactive
PAK1 (GeneID 5058) | -1.25 | 0.743 | 0.0258 | 0.0696 | 0.0305 | inactive
PI4K2A (GeneID 55361) | 0.561 | 1 | -0.134 | -0.0968 | -0.025 | inactive
DTYMK (GeneID 1841) | 0.561 | 1 | -0.134 | -0.0968 | 0.0254 | inactive
MAP3K7 (GeneID 6885) | 0.561 | 1 | -0.0484 | 0.0206 | 0.0246 | inactive
ETNK1 (GeneID 55500) | 0.561 | 1 | 0.0997 | 0.00961 | 0.0271 | inactive
NAGK (GeneID 55577) | -2.14 | 0.616 | -0.0574 | -0.0501 | -0.0257 | inactive
TRIB2 (GeneID 28951) | -1.92 | 0.648 | -0.0974 | 0.0634 | 0.0479 | inactive
PHKB (GeneID 5257) | 0.561 | 1 | -0.0905 | -0.0956 | -0.0337 | inactive
RNASEL (GeneID 6041) | 0.561 | 1 | -0.134 | -0.0233 | 0.0419 | inactive
PIK3R2 (GeneID 5296) | 0.561 | 1 | -0.0274 | -0.0869 | -0.0707 | inactive
CDK12 (GeneID 51755) | 0.561 | 1 | -0.0659 | -0.063 | -0.0527 | inactive
DLG2 (GeneID 1740) | 0.561 | 1 | -0.017 | -0.0968 | -0.108 | inactive
MTOR (GeneID 2475) | 0.561 | 1 | -0.0741 | 0.144 | 0.0397 | inactive

Limited to “robust z-score, siRNA alone (DMSO)” (4 entries from above):
RNASEL (GeneID 6041): 0.561
PIK3R2 (GeneID 5296): 0.561
CDK12 (GeneID 51755): 0.561
DLG2 (GeneID 1740): 0.561
